Laboratory results from patent US12319742.

Amino acid sequences for entries named in this document (tags omitted). A change or cut given only in a name is not applied to a line headed by its entry.
UniProt Q93038: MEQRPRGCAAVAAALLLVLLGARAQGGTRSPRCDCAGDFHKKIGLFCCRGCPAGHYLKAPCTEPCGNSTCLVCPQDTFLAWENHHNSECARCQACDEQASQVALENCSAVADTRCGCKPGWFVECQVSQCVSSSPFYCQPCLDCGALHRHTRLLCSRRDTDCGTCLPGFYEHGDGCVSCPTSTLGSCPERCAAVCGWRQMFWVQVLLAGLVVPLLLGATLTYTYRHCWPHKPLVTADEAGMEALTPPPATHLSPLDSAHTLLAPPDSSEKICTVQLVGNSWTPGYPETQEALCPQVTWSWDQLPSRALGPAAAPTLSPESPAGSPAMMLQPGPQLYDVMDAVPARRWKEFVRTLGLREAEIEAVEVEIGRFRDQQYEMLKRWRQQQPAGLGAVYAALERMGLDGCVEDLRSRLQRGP

Legend:
[1] = target: human TNFRSF25 over-expressed on CHOK1 cells (cDNA sequence NP_683866) (human) (UniProt Q93038); experiment: flow cytometry on CHOK1-TNFRSF25+ cells (upper panel), 1 h at 4 C, APC anti-human Fc
[2] = target: human TNFRSF25 over-expressed on CHOK1 cells (cDNA sequence NP_683866) (human) (UniProt Q93038); experiment: flow cytometry on CHOK1-TNFRSF25+ cells
[3] = target: human TNFRSF25 over-expressed on CHOK1 cells (cDNA sequence NP_683866) (human) (UniProt Q93038); experiment: flow cytometry on CHOK1-TNFRSF25+ cells (lower panel), 1 h at 4 C, APC anti-human Fc

binding [1]: binds
binding [2]: binds
B1: NH46 (whole antibody) (antibody, human IgG1, kappa, V domains shown)
VH: QVQLVQSGSEVKKPGASVRVSCKVSGSTVKELSMHWVRQAPGKGLEWMGGYDPEDGESIFAQKFQGRVNMTEDRSTDTAYMELSSLRSEDTAVYYCATDLNWEDAFDVWGQGTMVTVSS
VL: QSVLTQPPSVSAAPGQKVTISCSGSGSNIGNYYVAWYQQFPGTAPKLLIYDNNKRPSGIPDRFSGSKSGTSATLGITGLQTGDEADYYCGTWDTSLTAGDIYVFGTGTKVTVLR

binding [1]: binds
binding [2]: binds
B2: NH24 (whole antibody) (antibody, human IgG1, kappa, V domains shown)
VH: EVQLVESGGGSVQPGGSLRLSCAASGFTFSSYGMSWIRQAPGKGLEWISYISSSGGHTYYADSVKGRFTISRDNAKNSLYLQMNSLRAEDTAVYYCARGSGSFDYWGQGTLVTVSS
VL: DIVMTQSPSSLSASVGDRVTITCQASQDITNYLSWYQQKPGKAPKLLISDASNLETGIPSRFSGSGSGTDFTFTISSLQPEDIATYYCQQYDTLPITFGQGTRLEIKR

binding [3]: binds
B3: SL-061mut213 (antibody, human IgG1, kappa, V domains shown)
VH: QVQLQQSGPGLVKPSQTLSLTCAISGDSVSSYSAAWNWIRQSPSRGLEWLGRTYYRSKWFNDYAVSVKSRITINPDTSKNQFSLQLNSVTPEDTAVYYCARDYYGSESYYNRGYYYYGLDVWGQGTTVTVSS
VL: AIQLTQSPSSLSASVGDRVTITCRASPSISSALAWYQQKPGKAPKLLMYDESSQEGSVPSRFSGSGSGTDFTLTISSLQPEDFATYYCQQFNEYPLTFGGGTKVEIKR

No constants are given. Whether binding was seen depends on the method and setting. A result given as binding can be weak or reduced; the word gives no strength. One block for each binder: values may come before it.
